In PMC9676403:
These are yes or no findings as the source states them, for the method shown. Some entries that bind do so weakly or less than the wild type.

Chains of the proteins cited; added tags and fusions are not shown. Lines headed by an entry give the natural chain unless they say otherwise; changes in a name come on top. Residues count along the entry.
UniProt P13674, residues 18-534: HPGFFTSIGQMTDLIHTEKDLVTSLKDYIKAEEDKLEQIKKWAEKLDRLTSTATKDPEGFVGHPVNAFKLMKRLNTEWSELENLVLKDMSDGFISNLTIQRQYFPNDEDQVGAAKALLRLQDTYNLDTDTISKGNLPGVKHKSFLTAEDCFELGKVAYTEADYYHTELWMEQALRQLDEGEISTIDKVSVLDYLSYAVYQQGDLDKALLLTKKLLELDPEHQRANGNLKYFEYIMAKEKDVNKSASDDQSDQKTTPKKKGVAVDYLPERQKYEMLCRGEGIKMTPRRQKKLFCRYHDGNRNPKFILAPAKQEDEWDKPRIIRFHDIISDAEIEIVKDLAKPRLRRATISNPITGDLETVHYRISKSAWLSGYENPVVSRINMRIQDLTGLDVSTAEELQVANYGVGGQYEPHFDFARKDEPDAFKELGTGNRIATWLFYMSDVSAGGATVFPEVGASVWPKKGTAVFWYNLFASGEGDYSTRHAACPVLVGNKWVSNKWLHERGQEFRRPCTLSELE
UniProt P07237, residues 18-508: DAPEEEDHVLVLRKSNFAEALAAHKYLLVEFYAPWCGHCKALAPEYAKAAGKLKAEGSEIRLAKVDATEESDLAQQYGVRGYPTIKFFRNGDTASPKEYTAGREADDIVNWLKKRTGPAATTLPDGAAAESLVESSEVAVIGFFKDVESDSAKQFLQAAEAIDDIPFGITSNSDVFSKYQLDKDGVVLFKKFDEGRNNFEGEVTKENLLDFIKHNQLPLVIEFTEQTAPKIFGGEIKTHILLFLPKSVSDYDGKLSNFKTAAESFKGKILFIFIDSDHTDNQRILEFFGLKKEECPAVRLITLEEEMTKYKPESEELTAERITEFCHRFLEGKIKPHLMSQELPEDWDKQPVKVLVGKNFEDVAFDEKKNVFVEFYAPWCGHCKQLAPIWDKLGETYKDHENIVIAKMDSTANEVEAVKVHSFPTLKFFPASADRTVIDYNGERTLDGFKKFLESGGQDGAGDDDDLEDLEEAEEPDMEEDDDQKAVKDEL

Biological target: α-subunit of mature human C-P4H-I (human) (UniProt P13674)
Assay: co-purification; His6-tagged α-subunit coexpressed with untagged β/PDI in E. coli (CyDisCo); Talon IMAC from the lysate, HiTrap Q, Superdex 200, 4 °C, Tris pH 7.8; subunits found in the purified sample by SDS-PAGE and MS

## protein disulfide isomerase, the β-subunit of C-P4H (from UniProt P07237 18-508) (enzyme)
  binding: binds
